Source: publication PMC6127644
No constants are given. Whether binding was seen depends on the method and setting. In cells and extracts the contact can be indirect.

Sequences of proteins named here, by UniProt entry; tags and fusion partners are left off.
UniProt Q9NZU7: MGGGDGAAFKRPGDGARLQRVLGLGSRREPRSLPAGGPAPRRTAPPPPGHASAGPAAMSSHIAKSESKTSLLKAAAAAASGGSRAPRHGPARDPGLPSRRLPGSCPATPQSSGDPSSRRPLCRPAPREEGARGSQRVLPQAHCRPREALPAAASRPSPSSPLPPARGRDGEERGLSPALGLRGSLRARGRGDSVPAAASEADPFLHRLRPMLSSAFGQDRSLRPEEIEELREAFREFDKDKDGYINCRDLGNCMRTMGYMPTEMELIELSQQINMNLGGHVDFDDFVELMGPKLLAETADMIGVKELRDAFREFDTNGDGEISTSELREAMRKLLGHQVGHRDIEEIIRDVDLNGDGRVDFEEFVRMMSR

Tests used:
[1] = molecular target: GluN1Rluc expressed without GluN2 (human) (UniProt Q05586); experiment: FRET or BRET; BRET^1 saturation in HEK-293T cells: constant GluN1Rluc cDNA (0.3 ug) without GluN2, increasing cDNA of the YFP-fused calcium sensor
[2] = molecular target: NMDAR reconstituted from GluN1Rluc and GluN2B (human) (UniProt Q05586+Q13224); experiment: FRET or BRET; BRET^1 saturation in HEK-293T cells: constant GluN1-RLuc and GluN2B cDNA, increasing cDNA of the YFP-fused calcium sensor; 5 uM coelenterazine H; 48 h after transfection

caldendrinYFP fusion protein (from UniProt Q9NZU7 1-370)
binding [1]: no binding | binding [2]: no binding
